The series is described as follows: physchem. As to conditions: buffer, pH 7.4.

Molecules are shown by their SMILES.

Usually logD stands for lipophilicity at a set pH, counting ionised and neutral species. Low readings indicate a more hydrophilic compound, high ones a more lipophilic compound. `C[C@@H]1CN(c2cc(=O)c3cc(C(=O)N4CCOCC4)cc(CN4CCOc5c(F)cccc54)c3o2)CCO1` came in with a logD of 1.8.
On to `C[C@@H]1CN(c2cc(=O)c3cc(C(=O)N4CCOCC4)cc(CN4CCOc5c(F)cc(F)cc54)c3o2)CCO1`, for which the logD came out at 2.1.

These data come from ChEMBL document CHEMBL3797054, “Discovery of a series of 8-(2,3-dihydro-1,4-benzoxazin-4-ylmethyl)-2-morpholino-4-oxo-chromene-6-carboxamides as PI3Kβ/δ inhibitors for the treatment of PTEN-deficient tumours” (Bioorg Med Chem Lett, 2016).
